No constants are given. Whether binding was seen depends on the method and setting. Binding seen in cells or lysates may run through a third protein. Sequences can lack the tags named with a protein.

The target in the test is CEP192-GST (aa 1501-1941) (human). Put plainly: pull-down; GST fusion proteins on glutathione-agarose beads; pre-cleared lysate (1 mg protein) of V5-C2orf62-transfected HEK293T cells, 2 hrs at 4°C; anti-V5 Western blot; only the target purified. (Immunoblotting shows a protein as a band on a membrane.)

B1: V5-C2orf62 (protein, UniProt Q7Z7H3 1-387)
chain: MSSKVYSTGSRAKDHQPSGPECLPLPEANAEAIDFLSSLHKEELQMLFFSETLAMVSDTGEPQGELTIEVQRGKYQEKLGMLTYCLFVHASSRGFLDKMLCGNSLLGYLSEKLELMEQHSQDFIKFLILPMERKMSLLKQDDQLAVTRSIKEGEEVKTGVTSFPWSSIKGFISEAANLVLLRVMAWRRMVPSNARFLTLDTEGKLCYLTYQNLGFQTIQVDHQQAEVFIVEQTVHAEEGIPMSCQYYLLSDGHLAKRIQVGSPGCCIITKMPILREEDEIEPRPVFEKKPLVWEEDMELYSKFLDRKEELRLGHASYLRQHPEAHALISDFLLFLLLRQPEDVVTFAAEFFGPFDPWRPSSPALGSSHRPNPFRSLEPEGDARSGAA
Take B1: the binding result is recorded as “no binding”.

The values are drawn from PMC3903541.
